The values that follow come from the supplement of paper PMC6331611.

In the assay the test system is Salmonella enterica serovar Typhimurium SL1344. Put plainly: normalized intracellular growth (luminescence, IQM-normalized) in RAW264.7 macrophages (fraction of plate interquartile mean); higher = more bacterial growth (less inhibition). Particulars: 10 µM.

± gives the standard deviation of the averaged measurements. The full ranking holds about 1,600 compounds; the median of “normalized intracellular growth (luminescence, IQM-normalized) in RAW264.7 macrophages” is about 1, and the lowest 2% start at about 0.43. Some of the results follow.

For `CC(NCCc1ccc(O)cc1)C(O)c1ccc(O)cc1` (stereo not given), the normalized intracellular growth is, setting by setting: (time point: T3 (3 h)) 1.03 ± 0.081; (time point: Tfinal (~6 h)) 1.13 ± 0.11.

Turning to `CCc1nn(CCCN2CCN(c3cccc(Cl)c3)CC2)c(=O)n1CCOc1ccccc1`, the normalized intracellular growth came out at 0.988 ± 0.036 (time point: T3 (3 h)) and 0.955 ± 0.053 (time point: Tfinal (~6 h)).

For the compound `O=S(=O)(c1cccc2cnccc12)N1CCCNCC1`, the normalized intracellular growth reads like this: (time point: T3 (3 h)) 1.02 ± 0.035; (time point: Tfinal (~6 h)) 1.13 ± 0.067.

Turning to `Nc1nc(/C(=C/CC(=O)O)C(=O)N[C@@H]2C(=O)N3C(C(=O)O)=CCS[C@H]23)cs1`, the normalized intracellular growth came out at 0.951 ± 0.059 (time point: T3 (3 h)) and 0.0259 ± 0.0032 (time point: Tfinal (~6 h)).

Consider `CN(C)CCOC(=O)C(c1ccccc1)C1(O)CCCC1` (stereo not given), for which the normalized intracellular growth amounted to 1.07 ± 0.032 (time point: T3 (3 h)) and 0.963 ± 0.016 (time point: Tfinal (~6 h)).

`Nc1ccc(/N=N/c2ccccc2)c(N)n1` registered a normalized intracellular growth (time point: T3 (3 h)) of 0.941 ± 0.071 and a normalized intracellular growth (time point: Tfinal (~6 h)) of 0.954 ± 0.2.

Turning to `C[C@H](N[C@@H](CCc1ccccc1)C(=O)O)C(=O)N1Cc2ccccc2C[C@H]1C(=O)O`, the normalized intracellular growth is, setting by setting: (time point: T3 (3 h)) 1.03 ± 0.079; (time point: Tfinal (~6 h)) 1.08 ± 0.12.

For the compound `CCC(=O)O[C@]1(C(=O)SCF)[C@H](C)C[C@H]2[C@@H]3C[C@H](F)C4=CC(=O)C=C[C@]4(C)[C@@]3(F)[C@@H](O)C[C@@]21C`, the normalized intracellular growth is, setting by setting: (time point: T3 (3 h)) 0.969 ± 0.033; (time point: Tfinal (~6 h)) 0.815 ± 0.1.

As for `O=C(O)c1ccccc1Nc1cccc(C(F)(F)F)c1`, the normalized intracellular growth was 0.939 ± 0.071 (time point: T3 (3 h)) and 0.864 ± 0.15 (time point: Tfinal (~6 h)).

Take `OCCc1ccccc1`: the normalized intracellular growth runs as follows: (time point: T3 (3 h)) 0.981 ± 0.058; (time point: Tfinal (~6 h)) 0.955 ± 0.12.

For `CC(=O)Nc1ccc(S(=O)(=O)c2ccc(NC(C)=O)cc2)cc1`, the normalized intracellular growth runs as follows: (time point: T3 (3 h)) 1.01 ± 0.04; (time point: Tfinal (~6 h)) 0.912 ± 0.062.

Turning to `O=C1O[C@H]([C@@H](O)CO)C(O)=C1O`, the normalized intracellular growth (time point: T3 (3 h)) was 1.01 ± 0.061 and the normalized intracellular growth (time point: Tfinal (~6 h)) came to 1.05 ± 0.094.

Compound `Clc1ccc(C(c2ccccc2Cl)C(Cl)Cl)cc1` (stereo not given) yielded a normalized intracellular growth (time point: T3 (3 h)) of 0.967 ± 0.039 and a normalized intracellular growth (time point: Tfinal (~6 h)) of 1.26 ± 0.14.

Consider `C[N+](C)(C)C[C@H](O)CC(=O)[O-]`, for which the normalized intracellular growth stood at 1.022 ± 0.0093 (time point: T3 (3 h)) and 1.25 ± 0.13 (time point: Tfinal (~6 h)).

In the case of `OC(CCN1CCCC1)(c1ccccc1)C1CCCCC1` (stereo not given), the normalized intracellular growth runs as follows: (time point: T3 (3 h)) 1.05 ± 0.051; (time point: Tfinal (~6 h)) 1.02 ± 0.052.

In turn, `CC(C)NCC(O)COc1cccc2[nH]ccc12` (stereo not given) had a normalized intracellular growth (time point: T3 (3 h)) of 0.744 ± 0.1 and a normalized intracellular growth (time point: Tfinal (~6 h)) of 0.9 ± 0.097.

Consider `CC(CN(C)C)CN1c2ccccc2CCc2ccccc21` (stereo not given), for which the normalized intracellular growth came out at 0.997 ± 0.058 (time point: T3 (3 h)) and 1.17 ± 0.076 (time point: Tfinal (~6 h)).

Regarding `CCCCOc1ccc(C(=O)CCN2CCCCC2)cc1`, the normalized intracellular growth reads like this: (time point: T3 (3 h)) 1.02 ± 0.094; (time point: Tfinal (~6 h)) 1.17 ± 0.097.

Consider `CC(C)(C)CC(C)(C)c1ccc(OCCOCC[N+](C)(C)Cc2ccccc2)cc1`, for which the normalized intracellular growth (time point: T3 (3 h)) stood at 0.972 ± 0.036 and the normalized intracellular growth (time point: Tfinal (~6 h)) came out at 0.901 ± 0.032.

Regarding `Cn1nnc2c(C(N)=O)ncn2c1=O`, the normalized intracellular growth by setting is: (time point: T3 (3 h)) 1.03 ± 0.017; (time point: Tfinal (~6 h)) 1.03 ± 0.045.

For `CC(C)(C)NC(=O)[C@H]1CC[C@H]2[C@@H]3CC[C@H]4NC(=O)C=C[C@]4(C)[C@H]3CC[C@]12C`, the normalized intracellular growth runs as follows: (time point: T3 (3 h)) 1.15 ± 0.086; (time point: Tfinal (~6 h)) 1.36 ± 0.065.

For the compound `C=C1CC[C@H](O)C/C1=C/C=C1\CCC[C@]2(C)[C@@H]([C@H](C)/C=C/[C@H](C)C(C)C)CC[C@@H]12`, the normalized intracellular growth is 1.04 ± 0.059 (time point: T3 (3 h)) and 1.2 ± 0.086 (time point: Tfinal (~6 h)).

For `Nc1nc(N)c2nc(-c3ccccc3)c(N)nc2n1`, the normalized intracellular growth (time point: T3 (3 h)) stood at 0.838 ± 0.039 and the normalized intracellular growth (time point: Tfinal (~6 h)) was 1.07 ± 0.03.

As for `Cc1c(Nc2ncccc2C(=O)O)cccc1C(F)(F)F`, the normalized intracellular growth (time point: T3 (3 h)) amounted to 1.02 ± 0.056 and the normalized intracellular growth (time point: Tfinal (~6 h)) worked out at 1.07 ± 0.052.

Take `CC[C@H](c1ccc(O)cc1)[C@@H](CC)c1ccc(O)cc1`: the normalized intracellular growth was 0.997 ± 0.051 (time point: T3 (3 h)) and 1.03 ± 0.19 (time point: Tfinal (~6 h)).

Consider `C[C@]12CCC(=O)C=C1CC[C@@H]1[C@@H]2[C@@H](O)C[C@@]2(C)[C@H]1CC[C@]2(O)C(=O)COP(=O)(O)O`, for which the normalized intracellular growth came out at 0.9812 ± 0.0046 (time point: T3 (3 h)) and 0.999 ± 0.047 (time point: Tfinal (~6 h)).

In the case of `CC(=O)OCC(=O)[C@@]1(O)CC[C@H]2[C@@H]3CCC4=CC(=O)C=C[C@]4(C)[C@H]3[C@@H](O)C[C@@]21C`, the normalized intracellular growth reads like this: (time point: T3 (3 h)) 0.822 ± 0.19; (time point: Tfinal (~6 h)) 0.823 ± 0.06.

Turning to `CC1(C)O[C@@H]2C[C@H]3[C@@H]4C[C@H](F)C5=CC(=O)C=C[C@]5(C)[C@H]4[C@@H](O)C[C@]3(C)[C@]2(C(=O)CO)O1`, the normalized intracellular growth is, setting by setting: (time point: T3 (3 h)) 1.028 ± 0.0072; (time point: Tfinal (~6 h)) 0.938 ± 0.02.

For the compound `CN(Cc1cc(Br)cc(Br)c1N)C1CCCCC1`, the normalized intracellular growth stood at 1 ± 0.011 (time point: T3 (3 h)) and 0.979 ± 0.0081 (time point: Tfinal (~6 h)).

On to `C[C@H](CS)C(=O)N1CCC[C@H]1C(=O)O`, for which the normalized intracellular growth runs as follows: (time point: T3 (3 h)) 1.09 ± 0.021; (time point: Tfinal (~6 h)) 1.07 ± 0.036.

On to `NCCc1ccc(O)c(O)c1`, for which the normalized intracellular growth is, setting by setting: (time point: T3 (3 h)) 1.02 ± 0.045; (time point: Tfinal (~6 h)) 1 ± 0.084.

For the compound `COc1ccc(-c2ccc3cc(C(=O)O)ccc3c2)cc1C12CC3CC(CC(C3)C1)C2`, the normalized intracellular growth runs as follows: (time point: T3 (3 h)) 1.03 ± 0.045; (time point: Tfinal (~6 h)) 0.923 ± 0.41.

On to `CCN1CCCC1CNC(=O)c1cc(S(N)(=O)=O)ccc1OC` (stereo not given), for which the normalized intracellular growth by setting is: (time point: T3 (3 h)) 0.968 ± 0.025; (time point: Tfinal (~6 h)) 1.02 ± 0.1.

On to `CCCCc1oc2ccccc2c1C(=O)c1cc(I)c(OCCN(CC)CC)c(I)c1`, for which the normalized intracellular growth is, setting by setting: (time point: T3 (3 h)) 1 ± 0.048; (time point: Tfinal (~6 h)) 1.01 ± 0.07.

In the case of `Cc1cccc(N(C)C(=S)Oc2ccc3ccccc3c2)c1`, the normalized intracellular growth worked out at 0.8168 ± 0.0041 (time point: T3 (3 h)) and 0.932 ± 0.087 (time point: Tfinal (~6 h)).

Take `N[C@@H](COP(=O)(O)O)C(=O)O`: the normalized intracellular growth is 1.01 ± 0.071 (time point: T3 (3 h)) and 0.987 ± 0.095 (time point: Tfinal (~6 h)).

`O=c1[nH]c(=O)n([C@H]2C[C@H](O)[C@@H](CO)O2)cc1I` gave a normalized intracellular growth (time point: T3 (3 h)) of 1.005 ± 0.0041 and a normalized intracellular growth (time point: Tfinal (~6 h)) of 1.01 ± 0.2.

Consider `CC1(C)O[C@@H]2C[C@H]3[C@@H]4C[C@H](F)C5=CC(=O)CC[C@]5(C)[C@H]4[C@@H](O)C[C@]3(C)[C@]2(C(=O)CO)O1`, for which the normalized intracellular growth reads like this: (time point: T3 (3 h)) 1 ± 0.082; (time point: Tfinal (~6 h)) 1 ± 0.024.

`CCC(=O)OCC(=O)[C@@]1(OC(=O)CC)[C@@H](C)C[C@H]2[C@@H]3CCC4=CC(=O)C=C[C@]4(C)[C@@]3(F)[C@@H](O)C[C@@]21C`: the normalized intracellular growth runs as follows: (time point: T3 (3 h)) 1.02 ± 0.042; (time point: Tfinal (~6 h)) 0.958 ± 0.024.

As for `NNC(=O)c1ccncc1`, the normalized intracellular growth is, setting by setting: (time point: T3 (3 h)) 1.01 ± 0.018; (time point: Tfinal (~6 h)) 1.01 ± 0.098.

For the compound `CC/C=C\C/C=C\C/C=C\C/C=C\C/C=C\C/C=C\CCC(=O)O`, the normalized intracellular growth was 0.977 ± 0.069 (time point: T3 (3 h)) and 1.02 ± 0.09 (time point: Tfinal (~6 h)).

Regarding `CCCCC(CC)COc1ccc(-c2nc(-c3ccc(OC)cc3)nc(-c3ccc(OCC(CC)CCCC)cc3O)n2)c(O)c1` (stereo not given), the normalized intracellular growth (time point: T3 (3 h)) stood at 1.02 ± 0.065 and the normalized intracellular growth (time point: Tfinal (~6 h)) amounted to 1.1 ± 0.17.

For `CN1CCCN=C1/C=C/c1cccs1`, the normalized intracellular growth (time point: T3 (3 h)) stood at 1.05 ± 0.043 and the normalized intracellular growth (time point: Tfinal (~6 h)) came out at 1.13 ± 0.093.

For `CCC[C@@H]1C[C@@H](C(=O)N[C@@H]([C@H]2O[C@H](SC)[C@H](O)[C@@H](O)[C@H]2O)[C@@H](C)O)N(C)C1`, the normalized intracellular growth is, setting by setting: (time point: T3 (3 h)) 1.07 ± 0.045; (time point: Tfinal (~6 h)) 1.02 ± 0.042.

In turn, `O=c1cc[nH]c(=O)[nH]1` registered a normalized intracellular growth (time point: T3 (3 h)) of 0.935 ± 0.09 and a normalized intracellular growth (time point: Tfinal (~6 h)) of 0.9 ± 0.052.
